# Measurements as given in the supplement of paper PMC8728848.
# Some of the results follow.
# Tests used:
# Experiment in all cases: glycan array binding signal (z-score within array); higher = stronger binding
# Conditions in all cases: glycan notation: IUPAC condensed, linker removed
# Gal3S4S(b1-4)GlcNAc = biological target: Gal3S4S(b1-4)GlcNAc
# Method in brief: (§1)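 From the Consortium for Functional Glycomics database, 3228 arrays were curated, keeping only those whose protein sequence was available. Binding is given as a within-array Z-score averaged across arrays sharing a protein sequence and across linkers. Negative Z-scores can be read as non-binding.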
# Gal3S6S(b1-4)GlcNAc = biological target: Gal3S6S(b1-4)GlcNAc
# Method in brief: as §1
# Gal3S6S(b1-4)GlcNAc6S = biological target: Gal3S6S(b1-4)GlcNAc6S
# Method in brief: as §1
# Gal4S(b1-4)GlcNAc = biological target: Gal4S(b1-4)GlcNAc
# Method in brief: as §1
# Gal4S6S(b1-4)GlcNAc = biological target: Gal4S6S(b1-4)GlcNAc
# Method in brief: as §1
# Gal6P(b1-4)GlcNAc = biological target: Gal6P(b1-4)GlcNAc
# Method in brief: as §1
# Gal6S(b1-3)GlcNAc = biological target: Gal6S(b1-3)GlcNAc
# Method in brief: as §1
# Gal6S(b1-3)GlcNAc6S = biological target: Gal6S(b1-3)GlcNAc6S
# Method in brief: as §1
# Gal6S(b1-4)Glc = biological target: Gal6S(b1-4)Glc
# Method in brief: as §1
# Gal6S(b1-4)Glc6S = biological target: Gal6S(b1-4)Glc6S
# Method in brief: as §1
# Gal6S(b1-4)GlcNAc = biological target: Gal6S(b1-4)GlcNAc
# Method in brief: as §1
# Gal6S(b1-4)GlcNAc6S = biological target: Gal6S(b1-4)GlcNAc6S
# Method in brief: as §1
# GalNAc(a1-3)Gal = biological target: GalNAc(a1-3)Gal
# Method in brief: as §1
# GalNAc(a1-3)GalNAc = biological target: GalNAc(a1-3)GalNAc
# Method in brief: as §1
# [1] = biological target: GalNAc(a1-3)GalNAc(b1-3)Gal(a1-4)Gal(b1-4)Glc
# Method in brief: as §1
# [2] = biological target: GalNAc(a1-3)GalNAc(b1-3)Gal(a1-4)Gal(b1-4)GlcNAc
# Method in brief: as §1
# GalNAc(b1-3)Gal = biological target: GalNAc(b1-3)Gal
# Method in brief: as §1
# [3] = biological target: GalNAc(b1-3)Gal(a1-4)Gal(b1-4)GlcNAc
# Method in brief: as §1
# [4] = biological target: GalNAc(b1-3)Gal(a1-4)Gal(b1-4)GlcNAc(b1-3)Gal(b1-4)Glc
# Method in brief: as §1
# [5] = biological target: GalNAc(b1-3)Gal(a1-6)Gal(b1-4)Glc
# Method in brief: as §1
# GalNAc(b1-3)GalNAc = biological target: GalNAc(b1-3)GalNAc
# Method in brief: as §1
# GalNAc(b1-3)GlcNAc = biological target: GalNAc(b1-3)GlcNAc
# Method in brief: as §1
# GalNAc(b1-4)Gal(b1-4)Glc = biological target: GalNAc(b1-4)Gal(b1-4)Glc
# Method in brief: as §1
# GalNAc(b1-4)GlcNAc = biological target: GalNAc(b1-4)GlcNAc
# Method in brief: as §1
# [6] = biological target: GalNAc(b1-4)GlcNAc(b1-2)Man
# Method in brief: as §1
# [7] = biological target: GalNAc(b1-4)GlcNAc(b1-2)Man(a1-3)[GalNAc(b1-4)GlcNAc(b1-2)Man(a1-6)]Man(b1-4)GlcNAc(b1-4)GlcNAc
# Method in brief: as §1
# [8] = biological target: GalNAc(b1-4)GlcNAc(b1-3)GalNAc(b1-4)GlcNAc
# Method in brief: as §1
# GalNAc(b1-4)GlcNAc6S = biological target: GalNAc(b1-4)GlcNAc6S
# Method in brief: as §1
# GalNAc(b1-6)GalNAc = biological target: GalNAc(b1-6)GalNAc
# Method in brief: as §1
# GalNAc3S(b1-4)GlcNAc = biological target: GalNAc3S(b1-4)GlcNAc
# Method in brief: as §1
# GalNAc3S(b1-4)GlcNAc3S = biological target: GalNAc3S(b1-4)GlcNAc3S
# Method in brief: as §1
# [9] = biological target: GalNAc3S(b1-4)[Fuc(a1-3)]GlcNAc
# Method in brief: as §1
# GalNAc4S6S(b1-4)GlcNAc = biological target: GalNAc4S6S(b1-4)GlcNAc
# Method in brief: as §1
# GalNAc6S(b1-4)GlcNAc = biological target: GalNAc6S(b1-4)GlcNAc
# Method in brief: as §1
# Glc(a1-4)Glc = biological target: Glc(a1-4)Glc
# Method in brief: as §1
# [10] = biological target: Glc(a1-4)Glc(a1-4)Glc(a1-4)Glc
# Method in brief: as §1
# Glc(a1-6)Glc(a1-6)Glc = biological target: Glc(a1-6)Glc(a1-6)Glc
# Method in brief: as §1
# [11] = biological target: Glc(a1-6)Glc(a1-6)Glc(a1-6)Glc
# Method in brief: as §1
binder,measurement,setting,value
SabA (Helicobacter pylori) (protein) MGSSHHHHHHSSGLVPRGSHMENLYFQGEDNGFFVSAGYQIGEAVQMVKNTGELKNLNEKYEQLSQYLNQVASLKQSIQNANNIELVNSSLNYLKSFTNNNYNSTTQSPIFNAVQAVITSVLGFWSLYAGNYFTFFVGKKVGDSGQPASVQGNPPFKTIIENCSGIENCAMDQTTYDKMKKLAEDLQAAQTNSATKGNNLCALSGCAATDSTSNPPNSTVSNALNLAQQLMDLIANTKTAMMWKNIVISGVSNTSGAITSTNYPTQYAVFNNIKAMIPILQQAVTLSQSNHTLSASLQAQATGSQTNPKFAKDIYTFAQNQKQVISYAQDIFNLFNSIPAEQYKYLEKAYLKIPNAGSTPTNPYRQVVNLNQEVQTIKNNVSYYGNRVDAALSVARDVYNLKSNQAEIVTAYNDAKTLSEEISKLPHNQVNTKDIVTLPYDKNAPAAGQSNYQINPEQQSNLNQALAAMSNNPFKKVGMISSQNNNGA,glycan array binding signal (z-score),Gal3S4S(b1-4)GlcNAc,0.971
same,glycan array binding signal (z-score),Gal3S6S(b1-4)GlcNAc,0.42
same,glycan array binding signal (z-score),Gal3S6S(b1-4)GlcNAc6S,0.24
same,glycan array binding signal (z-score),Gal4S(b1-4)GlcNAc,-0.09
same,glycan array binding signal (z-score),Gal4S6S(b1-4)GlcNAc,0.19
same,glycan array binding signal (z-score),Gal6P(b1-4)GlcNAc,-0.861
same,glycan array binding signal (z-score),Gal6S(b1-3)GlcNAc,-0.499
same,glycan array binding signal (z-score),Gal6S(b1-3)GlcNAc6S,0.018
same,glycan array binding signal (z-score),Gal6S(b1-4)Glc,0.222
same,glycan array binding signal (z-score),Gal6S(b1-4)Glc6S,0.154
same,glycan array binding signal (z-score),Gal6S(b1-4)GlcNAc,-0.205
same,glycan array binding signal (z-score),Gal6S(b1-4)GlcNAc6S,-0.001
same,glycan array binding signal (z-score),GalNAc(a1-3)Gal,1.43
same,glycan array binding signal (z-score),GalNAc(a1-3)GalNAc,0.067
same,glycan array binding signal (z-score),[1],0.228
same,glycan array binding signal (z-score),[2],-0.437
same,glycan array binding signal (z-score),GalNAc(b1-3)Gal,-0.002
same,glycan array binding signal (z-score),[3],0.328
same,glycan array binding signal (z-score),[4],-0.399
same,glycan array binding signal (z-score),[5],-0.633
same,glycan array binding signal (z-score),GalNAc(b1-3)GalNAc,-0.564
same,glycan array binding signal (z-score),GalNAc(b1-3)GlcNAc,-0.566
same,glycan array binding signal (z-score),GalNAc(b1-4)Gal(b1-4)Glc,1.6
same,glycan array binding signal (z-score),GalNAc(b1-4)GlcNAc,0.676
same,glycan array binding signal (z-score),[6],-0.816
same,glycan array binding signal (z-score),[7],2.98
same,glycan array binding signal (z-score),[8],-0.856
same,glycan array binding signal (z-score),GalNAc(b1-4)GlcNAc6S,-0.616
same,glycan array binding signal (z-score),GalNAc(b1-6)GalNAc,-0.5
same,glycan array binding signal (z-score),GalNAc3S(b1-4)GlcNAc,-0.329
same,glycan array binding signal (z-score),GalNAc3S(b1-4)GlcNAc3S,-0.673
same,glycan array binding signal (z-score),[9],-0.298
same,glycan array binding signal (z-score),GalNAc4S6S(b1-4)GlcNAc,-0.594
same,glycan array binding signal (z-score),GalNAc6S(b1-4)GlcNAc,0.834
same,glycan array binding signal (z-score),Glc(a1-4)Glc,-0.198
same,glycan array binding signal (z-score),[10],-0.046
same,glycan array binding signal (z-score),Glc(a1-6)Glc(a1-6)Glc,0.393
same,glycan array binding signal (z-score),[11],1.22

# 2 neighbouring records already listed, for reference:
binder,measurement,setting,value
SabA (Helicobacter pylori) (protein) MGSSHHHHHHSSGLVPRGSHMENLYFQGEDNGFFVSAGYQIGEAVQMVKNTGELKNLNEKYEQLSQYLNQVASLKQSIQNANNIELVNSSLNYLKSFTNNNYNSTTQSPIFNAVQAVITSVLGFWSLYAGNYFTFFVGKKVGDSGQPASVQGNPPFKTIIENCSGIENCAMDQTTYDKMKKLAEDLQAAQTNSATKGNNLCALSGCAATDSTSNPPNSTVSNALNLAQQLMDLIANTKTAMMWKNIVISGVSNTSGAITSTNYPTQYAVFNNIKAMIPILQQAVTLSQSNHTLSASLQAQATGSQTNPKFAKDIYTFAQNQKQVISYAQDIFNLFNSIPAEQYKYLEKAYLKIPNAGSTPTNPYRQVVNLNQEVQTIKNNVSYYGNRVDAALSVARDVYNLKSNQAEIVTAYNDAKTLSEEISKLPHNQVNTKDIVTLPYDKNAPAAGQSNYQINPEQQSNLNQALAAMSNNPFKKVGMISSQNNNGA,glycan array binding signal (z-score),GalNAc(b1-3)Gal,-0.002
same,glycan array binding signal (z-score),[3],0.328
